Values of other authors as cited in patent publication US9625458B2, “Biosensor” (priority 2002, dated 2017).
For at least one compound, name, drawing or mass did not settle the structure.

Tested on: E. coli glutamate/aspartate binding protein, wild type
Settings: reported (Willis & Furlong 1975); cited from earlier work

Structure (SMILES)	Kd
N[C@@H](CC(=O)O)C(=O)O [aspartate]	1200 nM
N[C@@H](CCC(=O)O)C(=O)O [glutamate]	800 nM
